Most values lie at the floor of the assay. Slopes are relative: functional sequences can read slightly below zero. Bounds are passed on as bounds.

In this data set the test system is Saccharomyces cerevisiae PS128 hsf1 delta, HSF1(1-493) fusion. The experiment in a line: growth estimate (transactivation domain function in HSF1 fusion, heat-shock survival) (a.u. (slope of normalised read count over time)); higher = stronger growth at 37°C, i.e. more transactivation activity. Conditions: library: random library.
Regarding IWSA, the growth estimate is under -0.25.

Take APGLHLQDVVT: the growth estimate is under -0.25. For IRGGK, the growth estimate is under -0.25. For RLTG, the growth estimate was under -0.25. To LHSQVSEGYANSK belongs under -0.25; to FNIPRTYGNPPGSPSSEDYT, under -0.25. To ISYSSM belongs under -0.25; to RREHHNHVCEPGEENSQGLH, -0.231. As for GNLRRA, the growth estimate was under -0.25. For LKS, the growth estimate is under -0.25.

Consider GRGKLWGRRLFAANHLDRLG, for which the growth estimate was under -0.25.

Regarding AFFSAVFIGSVSTVMFIKDR, the growth estimate was -0.0144. PEIDMVGTHLQLETLWSTAT: the growth estimate is 0.0225. With LSSKVGVRVSLDRSKLVIIR, the growth estimate was -0.245. GLSAECLWVT: the growth estimate was under -0.25. For SVCSGKVMTGESISKCLHVM the value was under -0.25.

Regarding NSAWRRVDILSREGVS, the growth estimate is under -0.25. Regarding LTIDESRY, the growth estimate is under -0.25.

Regarding SEGLVGSSIVPGSRSNNHAD, the growth estimate is under -0.25.

Regarding DMYGDCGFSAA, the growth estimate was under -0.25.

In the case of PLANRLKMSLEGSLARLLIH, the growth estimate is under -0.25. As to GVVPQGGEDRMIGRD, the growth estimate was under -0.25. VESGASLGHRTV: the growth estimate is under -0.25. On to DHGTDRWVPQPCQLKAFQVD, for which the growth estimate was under -0.25. Take RPGRGLWADVKAVKQLLNAR: the growth estimate is -0.242. For WVSATSLVLPGMFCRGESQL the value was under -0.25. To RFPYVQLSRTPRTGNYFTMR belongs -0.19; to SAHRSPLLTVCFGVFARSPI, under -0.25. Turning to LNACKNRRGRLLMGSFLTAV, the growth estimate is under -0.25. For SELRRVPPKGNRTRSQRVAV the value was under -0.25; for ARGPTDCGGTVRYRQLTVPG, under -0.25.

Consider GVPASSPSTKQQQDP, for which the growth estimate is under -0.25. For RTYRDGGRTQ, the growth estimate was under -0.25. For the substance NVAGEQVFERPRPSIRT, the growth estimate was under -0.25.

Take AHFGRFITSVPWIV: the growth estimate was under -0.25.

On to NHRSALKRRVD, for which the growth estimate is under -0.25. In the case of TYR, the growth estimate is under -0.25. Take IRSVPMLAQPKRQVICLQSS: the growth estimate was under -0.25. For the substance SVGRTRTLPPRVVASRDLSS, the growth estimate was under -0.25. For the substance AVLTNARVRSAYLRRCG, the growth estimate was under -0.25. With IEHFLSLLVKPF, the growth estimate is under -0.25. SVDSSWQGSEIFIVNPAKRS: the growth estimate is under -0.25. For EKWGSCLKLVDGL, the growth estimate was -0.19.

As for LGTSKCFGLDVGSVWCPTRR, the growth estimate is under -0.25. HADRTSLGNVESVFQLISSV: the growth estimate is under -0.25. As to CLCPILVPE, the growth estimate was -0.198. Regarding APCYRSGCYRARVVLAENDP, the growth estimate was under -0.25. As for DTMPGGT, the growth estimate is under -0.25. To GKSSTIGALLLRI belongs under -0.25; to KGVLSDKASDSLRKPRPATL, under -0.25. To ILKLTITMERAVTWVSVARR belongs under -0.25; to LVHGE, under -0.25. Regarding CYLHYTTSGDVEMKRLAPRT, the growth estimate is under -0.25. On to ISDGGLHSSGR, for which the growth estimate is under -0.25.

For the substance PRRGRLKGLIMVNLTLLGVH, the growth estimate is under -0.25.

With LLRGDLENRDTALTEDISVT, the growth estimate is under -0.25. For TGVIERTAETLGATSRISYS the value was under -0.25. Take GPT: the growth estimate was under -0.25. For AQLWGS the value was under -0.25; for TYSAPQHGYHVKYGYQRRCR, under -0.25; for RTRAGPAARLTPE, -0.248. Regarding LSKVSPALLKG, the growth estimate is under -0.25. Consider PVNKNANYLSAIVGP, for which the growth estimate is under -0.25.

Consider GKRLNELFQMGFVQPVIEIC, for which the growth estimate was under -0.25. In the case of RVGLTVKRLPRSLA, the growth estimate is -0.25. In the case of SKGHPIRSGYGRFIA, the growth estimate was under -0.25. Consider TGGRRV, for which the growth estimate was under -0.25. For QGKRYMCVQPVRSARSSQAC the value was under -0.25. Consider LPDASESTLDFPIV, for which the growth estimate is under -0.25.

EGRST: the growth estimate was under -0.25.

Turning to AREAWLRWEWNGRGSVAYSQ, the growth estimate was under -0.25. With LVLFPSDFSYA, the growth estimate is under -0.25. To GVWAGRGSEGYWAKQGPVGA belongs under -0.25; to RSMTAGVARHPKLVGEAGLG, under -0.25. Regarding GTL, the growth estimate was under -0.25. For GYGHAVLHSCTLAMQKGYSL the value was under -0.25. On to EWPVLGRAQ, for which the growth estimate is under -0.25.

As for VERITLWHQVRVERGI, the growth estimate was under -0.25. As to LRVLLPNVQKEWKHEWKGAG, the growth estimate was under -0.25. As for NYCGRNMSTAFMQNLSTIAL, the growth estimate is under -0.25. For EMSVGFRRKCGALDTRSRGV, the growth estimate was under -0.25. In the case of LVDFRDLKAVAM, the growth estimate is under -0.25. For TVTGIPSS, the growth estimate was under -0.25.

PLYICGASKCVSSQSTQVSK: the growth estimate was under -0.25. On to IDRGFGSALCGGAYLGINYS, for which the growth estimate is under -0.25. Turning to AEIHDYADA, the growth estimate was under -0.25. Take VCGFPLS: the growth estimate was under -0.25. Regarding GAGGIQDTRTDYPEMMRKTA, the growth estimate is under -0.25. For DASRPQGSRSSGESKGITAC the value was under -0.25; for ARVWATFTARISGG, under -0.25. As to LTTGSGPSA, the growth estimate is under -0.25.

With TCIGRCCSPVLRSMV, the growth estimate is under -0.25. To NSRRECPSGVLRP belongs under -0.25; to RVRGYTVYLACVQKRHLGCV, under -0.25; to GAQ, under -0.25.

Turning to ASSLHQTPRFAGFGVTYVGG, the growth estimate is under -0.25. On to SSEPRAGPGQMGTR, for which the growth estimate was under -0.25. Take QRKCDLLALEQCTGQS: the growth estimate is under -0.25. Consider KLR, for which the growth estimate is under -0.25. Turning to FQLGRPRRGTSRRCSLVLKL, the growth estimate was under -0.25. On to YLGYLYKIDG, for which the growth estimate is under -0.25.

In the case of AFKV, the growth estimate was -0.243.

Consider VGGQLFTVQC, for which the growth estimate was under -0.25. For the substance LEQTKSMV, the growth estimate was -0.245.

Take SSVACADR: the growth estimate is under -0.25.

Consider SSRPGGVIAFEWEVLVCGAA, for which the growth estimate was under -0.25. For QSVATTAVEPCGTGGPQVDG, the growth estimate was under -0.25.

With SCTLNVKLGGFRTVWSSDGQ, the growth estimate is under -0.25. For RKHGAEQAKVSNSREFSWTV the value was under -0.25; for HALCVR, under -0.25. As to TGTCEGCAPRVLKAQSNHLE, the growth estimate was under -0.25.

As for AICKSHGQYNTYSRQMLLRS, the growth estimate was under -0.25. For KVGGGRGYLLCTRRGYTDSE, the growth estimate is under -0.25.

As for LGGELG, the growth estimate was under -0.25. For AEVETGGHIADGERAAS, the growth estimate is under -0.25.

Values taken from the supplement of paper PMC5949888.
